Experimental data from paper PMC12255034.

System: LARK
Assay: EMSA
Conditions: K+, EMSA: 2 uM 5' 6-FAM probe annealed to form G4 (with K+), 2 ug LARK or 1 ug BG4, binding buffer, pH and temperature not given (ref 60), recombinant protein, label: 5' 6-FAM, folded or branched DNA

CCAGTGCGGGGCGCGAGGGGGCCGAGGGGCGGGGCAACAA [POUM2-C7]
binding result (5mC at C7): binds more weakly

CCAGTGCGGGGCGCGAGGGGGCCGAGGGGCGGGGCAACAA [POUM2-C14]
binding result (5mC at C14): binds more weakly

CCAGTGCGGGGCGCGAGGGGGCCGAGGGGCGGGGCAACAA [POUM2-C35]
binding result (5mC at C35): binds more weakly

CCAGTGCGGGGCGCGAGGGGGCCGAGGGGCGGGGCAACAA [POUM2-WT]
binding result (cited from earlier work): binds

For at least one entry, the source does not settle the construct or the ends of the probe. The comparison behind a weaker result is the experiment's own reference, which may not be listed here. At least one verdict rests on a figure or table, not on a statement of the authors.
